# Data reported in the supplement of paper PMC10032668.
# Protein sequences, listed by entry. Tags and fused reporters are not part of them.
# TPX2, Q9ULW0, UniProt Q9ULW0, whole entry: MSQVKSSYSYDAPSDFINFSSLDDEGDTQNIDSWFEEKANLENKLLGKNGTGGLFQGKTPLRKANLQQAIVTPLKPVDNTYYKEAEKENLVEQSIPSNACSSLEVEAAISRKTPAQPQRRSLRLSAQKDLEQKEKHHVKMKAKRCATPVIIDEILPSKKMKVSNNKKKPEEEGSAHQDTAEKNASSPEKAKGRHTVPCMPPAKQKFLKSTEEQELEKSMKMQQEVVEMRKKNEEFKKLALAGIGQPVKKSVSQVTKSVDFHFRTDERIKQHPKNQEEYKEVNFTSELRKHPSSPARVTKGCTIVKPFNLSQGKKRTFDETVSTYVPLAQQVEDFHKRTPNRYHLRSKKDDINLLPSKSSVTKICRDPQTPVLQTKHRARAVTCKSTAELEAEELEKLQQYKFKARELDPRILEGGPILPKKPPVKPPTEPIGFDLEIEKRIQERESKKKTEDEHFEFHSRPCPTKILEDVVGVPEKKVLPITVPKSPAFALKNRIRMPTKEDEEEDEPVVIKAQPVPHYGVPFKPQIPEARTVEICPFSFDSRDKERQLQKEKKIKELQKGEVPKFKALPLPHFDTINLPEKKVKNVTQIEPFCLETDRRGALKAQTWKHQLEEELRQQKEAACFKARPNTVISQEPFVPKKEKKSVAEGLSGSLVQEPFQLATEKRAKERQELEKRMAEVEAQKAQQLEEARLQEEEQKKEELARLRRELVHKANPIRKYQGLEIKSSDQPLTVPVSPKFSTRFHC
# WDR82, Q6UXN9, UniProt Q6UXN9, whole entry: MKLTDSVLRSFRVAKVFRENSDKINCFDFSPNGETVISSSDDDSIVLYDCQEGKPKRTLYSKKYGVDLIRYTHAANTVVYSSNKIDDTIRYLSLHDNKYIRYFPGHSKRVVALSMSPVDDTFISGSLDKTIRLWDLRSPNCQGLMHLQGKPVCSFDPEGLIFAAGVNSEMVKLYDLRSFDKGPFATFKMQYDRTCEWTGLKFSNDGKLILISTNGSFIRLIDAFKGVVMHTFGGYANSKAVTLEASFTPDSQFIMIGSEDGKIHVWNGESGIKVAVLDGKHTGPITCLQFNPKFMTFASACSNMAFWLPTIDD
# This is one part of the list. The list holds hits alone, and they repeat only in part.
# How the values were obtained:
# Test in all cases: PRISMA enrichment of interactor (LFQ) in peptide spot vs all other peptide spots (log2 fold change); higher = stronger / more specific binding of the interactor to the peptide
# SMNDC1, O75940 = biological target: SMNDC1, O75940
# Method: (§1)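 PRISMA: 221 full-length sORF-encoded peptides (3-15 aa), plus SOS1/GLUT1 control peptides, were spot-synthesized on cellulose membranes in triplicate. Membranes were incubated with HEK293T lysate, and bound proteins were identified by LC-MS/MS with LFQ. Enrichment is the log2 fold change versus all other peptide spots; only significant interactors are listed (cutoff c=6, x0=2.8).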
# SNW1, Q13573 = biological target: SNW1, Q13573
# Method: as §1
# SPOUT1, Q5T280 = biological target: SPOUT1, Q5T280
# Method: as §1
# SRI, P30626 = biological target: SRI, P30626
# Method: as §1
# STRBP, Q96SI9 = biological target: STRBP, Q96SI9
# Method: as §1
# TACO1, Q9BSH4 = biological target: TACO1, Q9BSH4
# Method: as §1
# TAOK2, Q9UL54 = biological target: TAOK2, Q9UL54
# Method: as §1
# TIA1, P31483 = biological target: TIA1, P31483
# Method: as §1
# TIAL1, Q01085 = biological target: TIAL1, Q01085
# Method: as §1
# TK1, P04183 = biological target: TK1, P04183
# Method: as §1
# TLN1, Q9Y490 = biological target: TLN1, Q9Y490
# Method: as §1
# TNIK, Q9UKE5 = biological target: TNIK, Q9UKE5
# Method: as §1
# TOMM34, Q15785 = biological target: TOMM34, Q15785
# Method: as §1
# TOX4, O94842 = biological target: TOX4, O94842
# Method: as §1
# TPX2, Q9ULW0 = biological target: TPX2, Q9ULW0
# Method: as §1
# TRIM32, Q13049 = biological target: TRIM32, Q13049
# Method: as §1
# TRPT1, Q86TN4 = biological target: TRPT1, Q86TN4
# Method: as §1
# TXLNA, P40222 = biological target: TXLNA, P40222
# Method: as §1
# TXLNG, Q9NUQ3 = biological target: TXLNG, Q9NUQ3
# Method: as §1
# UTP14A, Q9BVJ6 = biological target: UTP14A, Q9BVJ6
# Method: as §1
# WDR11, Q9BZH6 = biological target: WDR11, Q9BZH6
# Method: as §1
# WDR82, Q6UXN9 = biological target: WDR82, Q6UXN9
# Method: as §1
# WTAP, Q15007 = biological target: WTAP, Q15007
# Method: as §1
# XRN2, Q9H0D6 = biological target: XRN2, Q9H0D6
# Method: as §1
# YRDC, Q86U90 = biological target: YRDC, Q86U90
# Method: as §1
# YTHDC2, Q9H6S0 = biological target: YTHDC2, Q9H6S0
# Method: as §1
# ZC3H15, Q8WU90 = biological target: ZC3H15, Q8WU90
# Method: as §1
# ZC3HAV1L, Q96H79 = biological target: ZC3HAV1L, Q96H79
# Method: as §1
# ZNF207, O43670 = biological target: ZNF207, O43670
# Method: as §1
# ZNF512, Q96ME7 = biological target: ZNF512, Q96ME7
# Method: as §1
# ZNF638, Q14966 = biological target: ZNF638, Q14966
# Method: as §1
# ZNF768, Q9H5H4 = biological target: ZNF768, Q9H5H4
# Method: as §1
binder,measurement,setting,value
MVDNFYF [ASPN],PRISMA enrichment of interactor (log2),"SMNDC1, O75940",6.57
same,PRISMA enrichment of interactor (log2),"SNW1, Q13573",7.01
same,PRISMA enrichment of interactor (log2),"SPOUT1, Q5T280",5.77
same,PRISMA enrichment of interactor (log2),"SRI, P30626",6.08
same,PRISMA enrichment of interactor (log2),"STRBP, Q96SI9",7.59
same,PRISMA enrichment of interactor (log2),"TACO1, Q9BSH4",5.01
same,PRISMA enrichment of interactor (log2),"TAOK2, Q9UL54",5.59
same,PRISMA enrichment of interactor (log2),"TIA1, P31483",6.01
same,PRISMA enrichment of interactor (log2),"TIAL1, Q01085",5.02
same,PRISMA enrichment of interactor (log2),"TK1, P04183",3.9
same,PRISMA enrichment of interactor (log2),"TLN1, Q9Y490",7.13
same,PRISMA enrichment of interactor (log2),"TNIK, Q9UKE5",4.38
same,PRISMA enrichment of interactor (log2),"TOMM34, Q15785",6.77
same,PRISMA enrichment of interactor (log2),"TOX4, O94842",3.94
same,PRISMA enrichment of interactor (log2),"TPX2, Q9ULW0",6.38
same,PRISMA enrichment of interactor (log2),"TRIM32, Q13049",5.07
same,PRISMA enrichment of interactor (log2),"TRPT1, Q86TN4",4.03
same,PRISMA enrichment of interactor (log2),"TXLNA, P40222",6.63
same,PRISMA enrichment of interactor (log2),"TXLNG, Q9NUQ3",6.47
same,PRISMA enrichment of interactor (log2),"UTP14A, Q9BVJ6",6.04
same,PRISMA enrichment of interactor (log2),"WDR11, Q9BZH6",5.85
same,PRISMA enrichment of interactor (log2),"WDR82, Q6UXN9",4.11
same,PRISMA enrichment of interactor (log2),"WTAP, Q15007",4.55
same,PRISMA enrichment of interactor (log2),"XRN2, Q9H0D6",5.18
same,PRISMA enrichment of interactor (log2),"YRDC, Q86U90",4.11
same,PRISMA enrichment of interactor (log2),"YTHDC2, Q9H6S0",4.94
same,PRISMA enrichment of interactor (log2),"ZC3H15, Q8WU90",5.26
same,PRISMA enrichment of interactor (log2),"ZC3HAV1L, Q96H79",3.97
same,PRISMA enrichment of interactor (log2),"ZNF207, O43670",4.28
same,PRISMA enrichment of interactor (log2),"ZNF512, Q96ME7",5.43
same,PRISMA enrichment of interactor (log2),"ZNF638, Q14966",7.89
same,PRISMA enrichment of interactor (log2),"ZNF768, Q9H5H4",5.97

# Rewritten tab-delimited: entries from further up
binder	measurement	setting	value
MVDNFYF [ASPN]	PRISMA enrichment of interactor (log2)	ZNF638, Q14966	7.89
same	PRISMA enrichment of interactor (log2)	ZNF768, Q9H5H4	5.97
